Experimental data as given in paper PMC4931341.
These are yes or no findings as the source states them, for the method shown. In cells and extracts the contact can be indirect. Some binding calls cover weakened binding; strength is not graded here.

By UniProt entry, the sequences of proteins in these tests, tags left out.
UniProt P31266: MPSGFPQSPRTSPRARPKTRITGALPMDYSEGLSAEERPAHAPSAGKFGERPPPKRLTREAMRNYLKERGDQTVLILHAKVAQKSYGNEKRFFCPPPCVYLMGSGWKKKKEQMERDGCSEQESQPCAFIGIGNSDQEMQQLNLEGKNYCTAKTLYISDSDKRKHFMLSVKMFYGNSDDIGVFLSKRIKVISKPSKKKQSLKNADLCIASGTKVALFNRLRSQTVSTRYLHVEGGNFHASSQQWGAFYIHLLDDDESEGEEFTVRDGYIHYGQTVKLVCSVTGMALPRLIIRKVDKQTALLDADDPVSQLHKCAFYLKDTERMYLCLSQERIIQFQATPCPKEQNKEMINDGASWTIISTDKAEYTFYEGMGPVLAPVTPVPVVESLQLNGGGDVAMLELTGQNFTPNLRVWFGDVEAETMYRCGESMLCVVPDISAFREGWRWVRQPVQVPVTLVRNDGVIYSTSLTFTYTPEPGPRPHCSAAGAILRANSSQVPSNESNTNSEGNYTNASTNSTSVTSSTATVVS
UniProt Q99814: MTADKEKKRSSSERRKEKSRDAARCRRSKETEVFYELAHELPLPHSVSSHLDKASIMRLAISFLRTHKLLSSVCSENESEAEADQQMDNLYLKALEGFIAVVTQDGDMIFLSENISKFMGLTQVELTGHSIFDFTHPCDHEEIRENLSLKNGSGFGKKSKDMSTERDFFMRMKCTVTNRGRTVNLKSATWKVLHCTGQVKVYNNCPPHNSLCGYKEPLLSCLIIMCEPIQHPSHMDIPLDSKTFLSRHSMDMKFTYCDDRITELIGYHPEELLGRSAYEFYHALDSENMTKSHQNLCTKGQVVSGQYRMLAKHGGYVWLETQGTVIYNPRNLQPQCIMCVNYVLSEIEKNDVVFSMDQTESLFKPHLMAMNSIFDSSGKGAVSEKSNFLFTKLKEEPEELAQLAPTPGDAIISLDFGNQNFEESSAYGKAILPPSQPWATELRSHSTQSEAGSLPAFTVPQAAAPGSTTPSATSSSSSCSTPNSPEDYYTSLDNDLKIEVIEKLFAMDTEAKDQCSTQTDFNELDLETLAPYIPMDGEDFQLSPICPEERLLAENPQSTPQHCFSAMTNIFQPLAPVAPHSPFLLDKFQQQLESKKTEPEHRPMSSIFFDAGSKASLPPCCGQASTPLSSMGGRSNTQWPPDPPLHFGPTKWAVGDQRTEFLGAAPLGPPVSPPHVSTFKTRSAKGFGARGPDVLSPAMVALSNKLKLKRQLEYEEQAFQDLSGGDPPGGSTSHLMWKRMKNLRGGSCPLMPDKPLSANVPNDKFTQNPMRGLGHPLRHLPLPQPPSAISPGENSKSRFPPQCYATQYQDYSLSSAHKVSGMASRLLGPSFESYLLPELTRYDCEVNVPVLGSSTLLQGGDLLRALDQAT
UniProt P97481: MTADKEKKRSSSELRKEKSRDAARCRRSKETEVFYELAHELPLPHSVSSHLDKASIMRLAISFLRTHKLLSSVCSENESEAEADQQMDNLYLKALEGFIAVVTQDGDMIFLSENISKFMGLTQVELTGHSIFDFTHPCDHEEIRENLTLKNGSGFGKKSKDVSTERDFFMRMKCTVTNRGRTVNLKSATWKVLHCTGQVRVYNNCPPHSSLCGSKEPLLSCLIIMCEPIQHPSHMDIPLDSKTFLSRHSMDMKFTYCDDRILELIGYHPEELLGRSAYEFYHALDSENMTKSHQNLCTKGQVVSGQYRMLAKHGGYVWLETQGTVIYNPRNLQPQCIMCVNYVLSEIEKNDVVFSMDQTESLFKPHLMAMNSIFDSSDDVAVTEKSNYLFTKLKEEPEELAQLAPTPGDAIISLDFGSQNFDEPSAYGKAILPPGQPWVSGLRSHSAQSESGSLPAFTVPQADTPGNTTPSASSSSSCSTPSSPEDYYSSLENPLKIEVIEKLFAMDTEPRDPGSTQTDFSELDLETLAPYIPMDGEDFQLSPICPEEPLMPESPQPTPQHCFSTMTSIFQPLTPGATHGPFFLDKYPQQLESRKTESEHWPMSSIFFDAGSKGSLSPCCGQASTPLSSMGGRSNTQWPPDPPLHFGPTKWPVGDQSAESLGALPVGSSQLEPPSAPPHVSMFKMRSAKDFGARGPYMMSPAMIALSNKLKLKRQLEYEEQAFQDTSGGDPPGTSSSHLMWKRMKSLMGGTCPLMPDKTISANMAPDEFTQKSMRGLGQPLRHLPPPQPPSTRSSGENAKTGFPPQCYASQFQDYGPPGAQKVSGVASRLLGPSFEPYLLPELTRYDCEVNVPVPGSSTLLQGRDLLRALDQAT
UniProt Q16665: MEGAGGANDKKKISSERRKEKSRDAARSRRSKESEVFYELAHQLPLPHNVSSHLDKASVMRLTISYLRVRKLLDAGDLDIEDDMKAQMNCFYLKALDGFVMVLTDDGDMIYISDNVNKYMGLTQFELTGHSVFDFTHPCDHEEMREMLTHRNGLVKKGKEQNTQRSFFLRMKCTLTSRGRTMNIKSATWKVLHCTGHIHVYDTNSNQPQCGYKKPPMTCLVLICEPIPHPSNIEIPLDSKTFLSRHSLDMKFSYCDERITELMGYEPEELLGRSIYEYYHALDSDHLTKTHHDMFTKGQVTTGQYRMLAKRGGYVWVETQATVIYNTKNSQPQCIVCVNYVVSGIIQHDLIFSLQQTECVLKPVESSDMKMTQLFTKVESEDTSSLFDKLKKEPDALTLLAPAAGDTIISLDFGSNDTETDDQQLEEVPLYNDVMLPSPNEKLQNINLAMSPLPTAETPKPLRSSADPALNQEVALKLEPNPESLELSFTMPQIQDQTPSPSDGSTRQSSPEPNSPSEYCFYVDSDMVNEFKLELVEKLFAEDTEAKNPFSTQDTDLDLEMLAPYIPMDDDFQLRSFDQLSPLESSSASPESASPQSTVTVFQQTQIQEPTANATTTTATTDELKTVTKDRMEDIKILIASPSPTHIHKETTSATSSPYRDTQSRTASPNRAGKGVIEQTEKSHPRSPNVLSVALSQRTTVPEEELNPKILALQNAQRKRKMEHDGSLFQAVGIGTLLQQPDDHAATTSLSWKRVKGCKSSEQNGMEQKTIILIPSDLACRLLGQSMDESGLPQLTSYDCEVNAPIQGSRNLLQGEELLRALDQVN

Key:
[1] = biological target: eGFP-tagged RBPJ (recombination signal binding protein for immunoglobulin kappa J region) (UniProt P31266); assay: co-IP; HEK 293 T cells transfected with RBPJ-GFP (mCherry as negative control), hypoxia (2% O2) overnight; lysis in PBS with 0.5% Triton-X 100; anti-GFP antibody on protein A/G-agarose, 1 h at 4C, 3 washes; western blot for RBPJ, HIF-1 alpha and HIF-2 alpha
[2] = biological target: RBPJ, endogenous in mouse adult cardiomyocytes (mouse (endogenous in isolated adult cardiomyocytes)) (UniProt P31266); assay: proximity ligation; in situ PLA (Duolink) on isolated mouse ACM fixed in cold methanol, cultured 14 h under hypoxia (1% O2) or normoxia (21% O2); RBPJ antibody probe PLUS, HIF-1 alpha or HIF-2 alpha antibody probe MINUS; cKO ACM as negative control

binding [1] | binding [2] | Substance
binds |  | HIF2α (hypoxia-inducible factor 2 alpha), endogenous in HEK 293 T (from UniProt Q99814 1-870)
 | binds | HIF2α, endogenous in mouse adult cardiomyocytes (from UniProt P97481 1-874)
binds |  | HIF1α (hypoxia-inducible factor 1 alpha), endogenous in HEK 293 T (from UniProt Q16665 1-826)
